Reference: article PMC3009601, “Structural Basis for Apoptosis Inhibition by Epstein-Barr Virus BHRF1” (PLoS Pathogens, 2010)
No constants are given. Whether binding was seen depends on the method and setting. Binding seen in cells or lysates may run through a third protein. Binding calls can cover weak binding; strength is not graded here. Tags and fused reporters may be left off the sequences shown.

Molecular target: T1, EE-tagged Bad (human) (UniProt Q92934)
T1 sequence: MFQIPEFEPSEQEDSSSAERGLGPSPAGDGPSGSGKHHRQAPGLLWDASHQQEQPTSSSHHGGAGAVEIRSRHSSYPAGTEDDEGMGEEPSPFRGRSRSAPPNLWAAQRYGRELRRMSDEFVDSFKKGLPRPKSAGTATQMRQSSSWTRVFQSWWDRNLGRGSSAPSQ
Assay: co-IP; lysates of 35S-labeled HEK-293T cells co-expressing FLAG-tagged BHRF1 and EE-tagged BH3-only proteins, immunoprecipitated with antibodies to FLAG, EE or a control (HA) tag; SDS-PAGE and autoradiography

binding: binds
Substance: Endogenous 14-3-3 (human (endogenous in HEK-293T))
